Experimental data: PubChem BioAssay AID686937 (Drosophila RNAi Screening Center, 2013)
The screen tested about 23,000 reagents; this is a random part of those that have a named target and a result. 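Reduced-secretion tags in replicate 1 do not always agree with the z-scores; no criterion for assigning the tags was given.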 Names joined by + are all predicted targets of the reagent. Further read-outs or replicates are left out here. Not given: the amount of reagent.

Assay: 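Genes in the fly needed for secretion of protein constitutively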 (primary screen)
Cells: Drosophila S2 cells expressing secreted horseradish peroxidase
Knock-down reagent: long dsRNA against Drosophila genes
Time to read-out: about 5.5 days (5 days dsRNA, then 12 h reporter induction)
Challenge: reporter expression induced after 5 days of dsRNA, read 12 h later; inducer not stated
Read-out: 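After 5 days of dsRNA and 12 h of reporter induction, medium peroxidase read by chemiluminescence and scored as per-plate z-score; higher values mean more reporter released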
Scale: z-score: higher = more reporter secreted into medium

| Target gene | dsRNA | z-score, replicate 1 | z-score, replicate 2 | z-score, replicate 3 | z-score, replicate 4 |
| --- | --- | --- | --- | --- | --- |
| DptB | DRSC06001 | 0.36 | 0.54 | – | – |
| CG11112 | DRSC06038 | 0.16 | 0.12 | – | – |
| BBS5 | DRSC12168 | 0.37 | 0.2 | – | – |
| CheA86a | DRSC12839 | -0.46 | 0.02 | – | – |
| ATPsynO | DRSC16780 | -0.32 | -0.31 | – | – |
| CG14304 | DRSC14783 | 0.18 | 0.15 | – | – |
| CG8299 | DRSC07139 | 0.52 | 0.43 | – | – |
| Gasp | DRSC12349 | 0.3 | 0.12 | – | – |
| sqa | DRSC06693 | 0.07 | 0.04 | – | – |
| sqa | DRSC21635 | -0.19 | -0.26 | – | – |
| CG14841 | DRSC14965 | 0.6 | -0.54 | – | – |
| Oscillin | DRSC03001 | 0.29 | 0.13 | 0.08 | -0.04 |
| Lmx1a | DRSC09726 | 0.23 | 0.42 | – | – |
| Lmx1a | DRSC10275 | -1.86 | -2.47 | – | – |
| Gfrl | DRSC15196 | 0.28 | 0.06 | – | – |
| Gfrl | DRSC15197 | 0.32 | 0.26 | – | – |
| Gfrl | DRSC15199 | 0.33 | 0.46 | – | – |
| Gfrl | DRSC15565 | 0.15 | 0.37 | – | – |
| Gfrl | DRSC15719 | 0.08 | -0.28 | – | – |
| CR11386 + CR33222 | DRSC17781 | 0.08 | -0.06 | – | – |
| thetaTry | DRSC07705 | 0.22 | 0.19 | – | – |
| Eaf6 | DRSC09901 | 0.32 | 0.1 | – | – |
| CSN1a | DRSC01951 | 0.18 | 0.21 | – | – |
| DIP-zeta | DRSC02203 | 0.39 | 0.14 | – | – |
| DIP-zeta | DRSC02204 | 0.26 | 0.36 | 0.69 | 0.82 |
| DIP-zeta | DRSC02205 | 0.11 | -0.05 | – | – |
| lncRNA:CR43337 | DRSC07893 | 0.39 | 0.36 | – | – |
| Tret1-1 | DRSC07046 | 0.17 | 0.25 | – | – |
| Tret1-1 | DRSC07048 | -0.16 | 0.12 | – | – |
| Mst77F | DRSC11871 | 0.33 | 0.44 | – | – |
| CG5968 | DRSC02916 | 0.41 | 0.3 | – | – |
| CG17786 | DRSC15270 | 0.5 | 0.33 | – | – |
| Ptp10D | DRSC20272 | 0.26 | 0.27 | – | – |
| dgo | DRSC06134 | 0.09 | 0.34 | – | – |

Already shown: 5 of the entries above.
| Target gene | dsRNA | z-score, replicate 1 | z-score, replicate 2 | z-score, replicate 3 | z-score, replicate 4 |
| --- | --- | --- | --- | --- | --- |
| CG11112 | DRSC06038 | 0.16 | 0.12 | – | – |
| BBS5 | DRSC12168 | 0.37 | 0.2 | – | – |
| CheA86a | DRSC12839 | -0.46 | 0.02 | – | – |
| ATPsynO | DRSC16780 | -0.32 | -0.31 | – | – |
| CG14304 | DRSC14783 | 0.18 | 0.15 | – | – |

Additional records follow.
| Target gene | dsRNA | z-score, replicate 1 | z-score, replicate 2 | z-score, replicate 3 | z-score, replicate 4 |
| --- | --- | --- | --- | --- | --- |
| osp | DRSC01409 | -0.17 | 0.02 | – | – |
| osp | DRSC03585 | 0.42 | 0.34 | – | – |
| CG18507 | DRSC01334 | 0.34 | 0.07 | – | – |
| CG18507 | DRSC01914 | 0.82 | 0.56 | – | – |
| CG18747 | DRSC15384 | -0.1 | -0.05 | – | – |
| SkpE | DRSC19431 | 0.73 | -6.45 | – | – |
| QIL1 | DRSC10888 | -2.09 | -0.64 | – | – |
| CG13720 | DRSC08329 | 0.18 | 0.36 | – | – |
| Hsc70-4 | DRSC16711 | -4.59 | -4.82 | – | – |
| ttv | DRSC07709 | 0.39 | 0.3 | – | – |
| Cont | DRSC12149 | 0.26 | 0.23 | – | – |
| CG34302 | DRSC12751 | 0.28 | 0.02 | – | – |
| CG15249 | DRSC17978 | 0.39 | 0.54 | – | – |
| CR31822 | DRSC01510 | 0.29 | 0.3 | – | – |
| AstC-R1 | DRSC10799 | 0.22 | 0.13 | – | – |
| CG5096 | DRSC02813 | 0.42 | 0.47 | – | – |
| CG30394 | DRSC04074 | 0.35 | 0.51 | – | – |
| CG30394 | DRSC04260 | 0.37 | 0.43 | – | – |
| AdamTS-B | DRSC17402 | -0.19 | -0.32 | – | – |
| AdamTS-B | DRSC18346 | 0.45 | 0.64 | – | – |
| RabX4 | DRSC22189 | 0.36 | 0.21 | – | – |
| MetRS-m | DRSC16443 | 0.13 | 0.35 | – | – |
| MetRS-m | DRSC16515 | 0.41 | 0.59 | – | – |
